According to publication PMC3656109:
No constants are given. Whether binding was seen depends on the method and setting. In cells and extracts the contact can be indirect. Some entries that bind do so weakly or less than the wild type. Sequences can lack the tags named with a protein.

Sequences of proteins named here, by UniProt entry; tags and fusion partners are left off. Residues count along the entry.
UniProt P29317, residues 24-976: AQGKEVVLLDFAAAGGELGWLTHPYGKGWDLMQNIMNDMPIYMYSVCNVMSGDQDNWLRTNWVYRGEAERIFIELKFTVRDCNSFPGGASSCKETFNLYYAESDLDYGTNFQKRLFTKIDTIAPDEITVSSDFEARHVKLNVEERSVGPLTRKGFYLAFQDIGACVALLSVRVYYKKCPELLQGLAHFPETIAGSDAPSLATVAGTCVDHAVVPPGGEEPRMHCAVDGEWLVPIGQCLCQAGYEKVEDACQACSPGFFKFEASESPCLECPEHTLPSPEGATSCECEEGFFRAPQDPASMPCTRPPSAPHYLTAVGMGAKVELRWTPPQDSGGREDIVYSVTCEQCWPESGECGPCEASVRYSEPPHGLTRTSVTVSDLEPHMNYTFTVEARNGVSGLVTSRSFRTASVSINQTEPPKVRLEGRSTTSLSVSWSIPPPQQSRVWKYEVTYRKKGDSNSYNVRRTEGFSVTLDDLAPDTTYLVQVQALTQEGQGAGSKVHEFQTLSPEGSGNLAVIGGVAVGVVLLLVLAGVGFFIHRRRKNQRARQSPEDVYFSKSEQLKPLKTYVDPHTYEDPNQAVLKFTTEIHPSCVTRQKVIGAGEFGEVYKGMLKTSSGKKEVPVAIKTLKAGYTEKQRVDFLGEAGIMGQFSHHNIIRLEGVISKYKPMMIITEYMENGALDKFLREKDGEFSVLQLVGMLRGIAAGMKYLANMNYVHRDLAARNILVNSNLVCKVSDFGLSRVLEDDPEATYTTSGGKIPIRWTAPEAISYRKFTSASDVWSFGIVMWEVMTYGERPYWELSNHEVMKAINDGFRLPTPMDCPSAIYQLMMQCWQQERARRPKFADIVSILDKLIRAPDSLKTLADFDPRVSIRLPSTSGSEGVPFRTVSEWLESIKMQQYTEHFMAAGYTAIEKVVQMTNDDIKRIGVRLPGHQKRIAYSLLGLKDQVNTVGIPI
UniProt P54764, residues 20-986: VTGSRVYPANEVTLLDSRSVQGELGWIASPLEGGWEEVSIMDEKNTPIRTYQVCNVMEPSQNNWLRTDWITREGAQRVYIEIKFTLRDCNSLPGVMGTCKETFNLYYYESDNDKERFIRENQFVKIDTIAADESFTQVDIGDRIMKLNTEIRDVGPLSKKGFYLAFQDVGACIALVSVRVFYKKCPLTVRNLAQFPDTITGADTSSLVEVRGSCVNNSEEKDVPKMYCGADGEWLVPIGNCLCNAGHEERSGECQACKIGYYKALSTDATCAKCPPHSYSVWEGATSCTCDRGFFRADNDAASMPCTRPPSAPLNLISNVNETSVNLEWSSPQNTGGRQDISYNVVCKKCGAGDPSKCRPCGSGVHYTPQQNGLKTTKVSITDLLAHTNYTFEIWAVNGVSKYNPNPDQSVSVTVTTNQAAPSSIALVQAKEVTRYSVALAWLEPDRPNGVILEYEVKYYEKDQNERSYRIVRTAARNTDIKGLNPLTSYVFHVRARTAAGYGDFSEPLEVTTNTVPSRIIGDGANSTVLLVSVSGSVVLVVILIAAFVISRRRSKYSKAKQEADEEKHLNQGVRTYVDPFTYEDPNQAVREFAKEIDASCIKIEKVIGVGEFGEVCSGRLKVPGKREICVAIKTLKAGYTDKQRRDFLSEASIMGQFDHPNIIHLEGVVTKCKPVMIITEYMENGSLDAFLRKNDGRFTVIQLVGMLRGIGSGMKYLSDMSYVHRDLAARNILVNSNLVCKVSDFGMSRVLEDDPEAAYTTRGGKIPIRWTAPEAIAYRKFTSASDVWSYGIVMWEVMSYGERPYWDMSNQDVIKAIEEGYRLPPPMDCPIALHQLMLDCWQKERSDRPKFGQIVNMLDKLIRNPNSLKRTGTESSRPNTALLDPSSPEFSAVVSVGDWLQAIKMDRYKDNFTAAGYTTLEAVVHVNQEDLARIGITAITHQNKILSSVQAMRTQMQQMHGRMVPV

What was measured:
Test in all cases: pull-down; lysates of 293T cells transfected with myc-tagged Eph constructs immunoprecipitated with 1 µg of recombinant Ephrin-Fc protein; washed three times with lysis buffer; Western blot; only the target purified
[1] = biological target: T1, EphrinA5-Fc (not stated (human or murine)) (UniProt P52803)
T1 sequence: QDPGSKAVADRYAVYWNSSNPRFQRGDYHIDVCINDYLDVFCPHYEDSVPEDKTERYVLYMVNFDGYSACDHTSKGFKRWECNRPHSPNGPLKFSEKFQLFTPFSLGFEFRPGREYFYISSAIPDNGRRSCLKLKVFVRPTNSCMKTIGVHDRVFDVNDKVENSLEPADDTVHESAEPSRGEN

[2] = biological target: T2, EphrinA4-Fc (not stated (human or murine)) (UniProt P52798)
T2 sequence: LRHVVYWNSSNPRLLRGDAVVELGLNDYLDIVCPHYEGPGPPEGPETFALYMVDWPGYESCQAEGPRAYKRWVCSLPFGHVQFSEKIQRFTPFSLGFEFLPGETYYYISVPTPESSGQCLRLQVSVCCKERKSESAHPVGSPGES

[3] = biological target: T3, EphrinA3-Fc (not stated (human or murine)) (UniProt P52797)
T3 sequence: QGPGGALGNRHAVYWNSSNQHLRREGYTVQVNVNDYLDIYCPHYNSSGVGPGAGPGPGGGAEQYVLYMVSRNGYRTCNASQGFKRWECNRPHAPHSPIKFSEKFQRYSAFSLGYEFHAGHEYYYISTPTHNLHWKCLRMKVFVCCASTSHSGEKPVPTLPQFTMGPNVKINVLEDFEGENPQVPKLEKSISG

Substance	binding [1]	binding [2]	binding [3]
EphA2, full length, C-terminal myc epitope tag (from UniProt P29317 24-976) (receptor)	binds weakly	binds	binds
EphA4, full length, C-terminal myc epitope tag (from UniProt P54764 20-986) (receptor)	binds	binds	–
